Results: PubChem BioAssay AID200 (DTP/NCI, 2004)
The list is a part of this screen's results and no random one: it is rich in T/C values a quarter to a half above the control, in often repeated tests (any T/C) and in doses without a T/C. Further doses and runs are listed elsewhere. T/C: endpoint of the treated group in % of that of the vehicle group. Some doses have a count of surviving animals in place of a T/C: the source holds a T/C of zero for them, seemingly a mark for toxic or unscored doses. Some doses without a T/C left all or most animals alive at the check, yet need not have been tolerated: survival well below the control is almost never listed, so the zero probably covers shortened survival too. Survivors were counted at the toxicity check, usually on the fifth day, unless a day is given; later deaths do not show. Schedule codes are those of the source, read here as Q, the interval in days (D) or hours (H), X, the number of doses. Some doses were run more than once; the results are listed from low to high. For survival time, this PubChem deposit counts one and a half times the control or more as active, and values a quarter to a half above the control carry no call in these data; other NCI protocols may use other cut-offs. Some T/C values carry the count of animals alive at the toxicity check (mostly the fifth day); without a count, all were alive then.

Tested on: B6C3F1 mice, B16 melanoma ip, median survival T/C
Assay: NCI In Vivo Anticancer Drug Screen. Data for tumor model B16 Melanoma (intraperitoneal) in B6C3F1 mice
Conditions: T/C endpoint: median survival time, higher T/C = longer survival
Summary of the method: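 Readout: survival or tumor size in treated mice relative to vehicle controls (T/C). Model uses transplantable tumors grown in mice.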

[1] = dose: 25.0 mg/kg/injection, schedule: Q01DX009 (ip), vehicle: saline with Tween-80
[2] = dose: 200.0 mg/kg/injection, schedule: Q01DX009 (ip), vehicle: Klucel (hydroxypropylcellulose) (HPC)
[3] = dose: 400.0 mg/kg/injection, schedule: Q01DX009 (ip), vehicle: Klucel (hydroxypropylcellulose) (HPC)
[4] = dose: 100.0 mg/kg/injection, schedule: Q01DX009 (ip), vehicle: distilled water + Tween-80
[5] = dose: 12.5 mg/kg/injection, schedule: Q01DX009 (ip), vehicle: distilled water + Tween-80
[6] = dose: 25.0 mg/kg/injection, schedule: Q01DX009 (ip), vehicle: distilled water + Tween-80
[7] = dose: 50.0 mg/kg/injection, schedule: Q01DX009 (ip), vehicle: distilled water + Tween-80
[8] = dose: 200.0 mg/kg/injection, schedule: Q01DX009 (ip), vehicle: saline
[9] = dose: 200.0 mg/kg/injection, schedule: Q01DX009 (ip), vehicle: saline with Tween-80
[10] = dose: 400.0 mg/kg/injection, schedule: Q01DX009 (ip), vehicle: saline with Tween-80
[11] = dose: 100.0 mg/kg/injection, schedule: Q01DX009 (ip), vehicle: Klucel (hydroxypropylcellulose) (HPC)
[12] = dose: 50.0 mg/kg/injection, schedule: Q01DX009 (ip), vehicle: saline with Tween-80
[13] = dose: 100.0 mg/kg/injection, schedule: Q01DX009 (ip), vehicle: saline with Tween-80
[14] = dose: 12.5 mg/kg/injection, schedule: Q01DX009 (ip), vehicle: saline with Tween-80

Nc1ccc(S(=O)(=O)c2ccc(N)cc2)cc1
survivor count [1]: 10 of 10
survivor count [2]: 5 of 10
survivor count [3]: 0 of 10

C=CCSc1ncnc2c1ncn2C1OC(CO)C(O)C1O (stereo unspecified)
survivor count (dose: 300.0 mg/kg/injection, schedule: Q01DX009 (ip), vehicle: saline with Tween-80): 10 of 10

COc1cc2c(cc1OC)-c1c3c(cc4c1[C@@H](C2)N(C)CC4)OCO3
survivor count [4]: 10 of 10

CC(C)NC(=O)OCc1c(COC(=O)NC(C)C)c(-c2ccc(Cl)c(Cl)c2)n2c1CCC2
T/C (dose: 2.5 mg/kg/injection, schedule: Q01DX009 (ip), vehicle: Klucel (hydroxypropylcellulose) (HPC)): 126 % of control
T/C (dose: 5.0 mg/kg/injection, schedule: Q01DX009 (ip), vehicle: Klucel (hydroxypropylcellulose) (HPC)): 134 % of control
T/C [5]: 186, 201, 222, 223 % of control
T/C [6]: 193, 241, 267, 310 % of control
T/C [7]: 126, 146, 210, 287 % of control
T/C [4]: 103, 111, 112 % of control
survivor count [4]: 10 of 10
survivor count (dose: 200.0 mg/kg/injection, schedule: Q01DX009 (ip), vehicle: distilled water + Tween-80): 9 of 10 and 10 of 10

CCN(CC)CCNc1ccc(C)c2sc3ccccc3c(=O)c12
survivor count [8]: 9 of 10

C[C@H](CCC[C@H](C)OS(=O)(=O)c1ccccc1)OS(=O)(=O)c1ccccc1
T/C [1]: 129 % of control
T/C (dose: 50.0 mg/kg/injection, schedule: Q01DX009 (ip), vehicle: saline with Tween-80, evaluated on day 45): 97 % of control
T/C (dose: 50.0 mg/kg/injection, schedule: Q01DX009 (ip), vehicle: saline with Tween-80, evaluated on day 60): 97, 123 [9 of 10 alive], 138 % of control
T/C (dose: 100.0 mg/kg/injection, schedule: Q01DX009 (ip), vehicle: saline with Tween-80, evaluated on day 45): 118 % of control
T/C (dose: 100.0 mg/kg/injection, schedule: Q01DX009 (ip), vehicle: saline with Tween-80, evaluated on day 60): 100 [9 of 10 alive], 150, 158 % of control
T/C [9]: 133 and 184 % of control
survivor count [9]: 9 of 10 and 10 of 10
survivor count [10]: 4 of 10 and 9 of 10

CCCCCCNc1nc(NCCCCCC)c2[nH]c(NCCCCCC)nc2n1
survivor count [10]: 9 of 10

CC(C)(C)C1CCCCC1
survivor count [11]: 10 of 10
survivor count [2]: 10 of 10
survivor count [3]: 10 of 10

c1ccc2c(c1)-c1ccccc1C1NC21 (stereo unspecified)
survivor count [1]: 10 of 10
survivor count [12]: 9 of 10
survivor count [13]: 0 of 10

COc1ccc(O)cc1
T/C [12]: 130 % of control

N=c1ccn2c(n1)OC1C(O)C(CO)OC12 (stereo unspecified)
T/C (dose: 600.0 mg/kg/injection, schedule: Q01DX009 (ip), vehicle: saline): 127 and 134 % of control
survivor count (dose: 1200.0 mg/kg/injection, schedule: Q01DX009 (ip), vehicle: saline): 10 of 10

C/C=C(\C)C(=O)N[C@@H](c1ccccc1)[C@@H](O)C(=O)OC1C[C@@]2(O)[C@@H](OC(=O)c3ccccc3)[C@@H]3[C@]4(OC(C)=O)CO[C@@H]4C[C@H](O)[C@@]3(C)C(=O)[C@H](OC(C)=O)C(=C1C)C2(C)C (stereo partly specified)
T/C (dose: 2.0 mg/kg/injection, schedule: Q01DX009 (ip), vehicle: saline + Tween-80 + alcohol): 125 % of control
T/C (dose: 8.0 mg/kg/injection, schedule: Q01DX009 (ip), vehicle: saline + Tween-80 + alcohol): 145 % of control

COc1cc2c[n+](C)c3c(c2cc1OC)Cc1cc2c(cc1-3)OCO2
T/C [1]: 128 % of control
T/C [12]: 133 % of control
survivor count [13]: 10 of 10
survivor count (dose: 100.0 mg/kg/injection, schedule: Q01DX009 (ip), vehicle: suspension in saline): 10 of 10
survivor count (dose: 200.0 mg/kg/injection, schedule: Q01DX009 (ip), vehicle: suspension in saline): 4 of 10

C/C=C/C=C1/OC(C)=C(C(C)=O)C1=O
survivor count [10]: 5 of 10

Nc1nc(=S)c2ncn(C3OC(COC(=O)c4ccccc4)C(OC(=O)c4ccccc4)C3OC(=O)c3ccccc3)c2[nH]1 (stereo unspecified)
survivor count [13]: 10 of 10

CCCCCCCCCCCC(=O)NC1CC(O[C@H]2C[C@](O)(C(=O)CO)Cc3c(O)c4c(c(O)c32)C(=O)c2c(OC)cccc2C4=O)OC(C)C1O (stereo partly specified)
survivor count (dose: 48.0 mg/kg/injection, schedule: Q01DX009 (ip), vehicle: saline): 10 of 10

C/C(=N\N=C(/[Se])N1CC2CCC(CC2)C1)c1ccccn1
T/C (dose: 1.5 mg/kg/injection, schedule: Q01DX009 (ip), vehicle: Klucel (hydroxypropylcellulose) (HPC)): 125 % of control
T/C (dose: 3.0 mg/kg/injection, schedule: Q01DX009 (ip), vehicle: Klucel (hydroxypropylcellulose) (HPC)): 126 % of control
survivor count (dose: 12.0 mg/kg/injection, schedule: Q01DX009 (ip), vehicle: Klucel (hydroxypropylcellulose) (HPC)): 9 of 10 and 10 of 10
survivor count (dose: 25.0 mg/kg/injection, schedule: Q01DX009 (ip), vehicle: Klucel (hydroxypropylcellulose) (HPC)): 3 of 10

O=C(Nc1ccc(N=C=S)cc1Cl)c1cc(Cl)cc(Cl)c1O
T/C (dose: 50.0 mg/kg/injection, schedule: Q01DX009 (ip), vehicle: Klucel (hydroxypropylcellulose) (HPC)): 130 % of control
survivor count [11]: 1 of 10
survivor count [2]: 0 of 10

c1ccc2[nH]ncc2c1
survivor count [10]: 2 of 10

COc1cccc2c1C(=O)c1c(O)c3c(c(O)c1C2=O)C[C@@](O)(C(=O)CO)C[C@@H]3OC1CC(OC(C)=O)C(OC(C)=O)C(C)O1 (stereo partly specified)
T/C (dose: 3.12 mg/kg/injection, schedule: Q01DX009 (ip), vehicle: distilled water + Tween-80): 149 % of control
T/C (dose: 12.5 mg/kg/injection, schedule: Q01DX001 (ip), vehicle: distilled water + Tween-80): 126 % of control
survivor count [5]: 10 of 10
survivor count [6]: 9 of 10
survivor count [7]: 10 of 10
survivor count (dose: 100.0 mg/kg/injection, schedule: Q01DX001 (ip), vehicle: distilled water + Tween-80): 5 of 10 and 10 of 10
survivor count [4]: 9 of 10
survivor count (dose: 200.0 mg/kg/injection, schedule: Q01DX001 (ip), vehicle: distilled water + Tween-80): 4 of 10 and 10 of 10

Cc1cc(N(CC(C)Br)CC(C)Br)ccc1N=Nc1ccccc1C(=O)O (stereo unspecified)
survivor count (dose: 0.78 mg/kg/injection, schedule: Q01DX009 (ip), vehicle: saline with Tween-80): 6 of 10
T/C (dose: 6.25 mg/kg/injection, schedule: Q01DX009 (ip), vehicle: saline with Tween-80): 143 % of control [9 of 10 alive]
survivor count [14]: 6 of 10 and 10 of 10
T/C (dose: 12.5 mg/kg/injection, schedule: Q01DX009 (ip), vehicle: saline): 129 % of control
survivor count [1]: 9 of 10
survivor count [12]: 8 of 10
survivor count [13]: 0 of 10

C=C1C(=O)OC2/C=C(\C)CC(O)/C=C(/CO)CC(OC(=O)/C(C)=C/C)C12 (stereo unspecified)
T/C (dose: 30.0 mg/kg/injection, schedule: Q01DX009 (ip), vehicle: saline + alcohol): 140 % of control
survivor count (dose: 120.0 mg/kg/injection, schedule: Q01DX009 (ip), vehicle: saline with Tween-80): 10 of 10
survivor count (dose: 120.0 mg/kg/injection, schedule: Q01DX009 (ip), vehicle: saline): 4 of 10

ClCc1ccc2ccccc2n1
survivor count [13]: 10 of 10
survivor count [9]: 10 of 10
survivor count [10]: 0 of 10

COC1C(N)C(OC2C(Oc3cccc4c(O)c5c(=O)oc6ccc(C)c7c(=O)oc(c34)c5c67)OC(C)C(O)C2(C)O)OC(C)C1O (stereo unspecified)
survivor count (dose: 14.0 mg/kg/injection, schedule: Q01DX009 (ip), vehicle: DMSO): 2 of 10
survivor count (dose: 20.0 mg/kg/injection, schedule: Q01DX009 (ip), vehicle: other): 0 of 8

ClC(Cl)(Cl)Sn1cccn1
survivor count [14]: 6 of 6
survivor count (dose: 100.0 mg/kg/injection, schedule: Q01DX009 (ip), vehicle: saline): 9 of 10
survivor count [8]: 6 of 10
